The list shows a part of the results.
Compound: Cc1cc(ccc1-c1ccccc1)C(=O)N1CCCN(CC1)C(=O)CCl [compound 10]
Experiment: probe-labelled cysteine peptide fold change vs DMSO (competition) (log2 fold change); higher = less target engagement (more negative = stronger competition)
Conditions: THP-1, incubation time: 4 h
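Note: competitive profiling in live THP-1 cells: cysteine peptides tagged with an iodoacetamide desthiobiotin (IA-DTB) probe, intensity after compound treatment relative to DMSO-treated cells.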

Chains of the proteins cited; added tags and fusions are not shown. Lines headed by an entry give the natural chain unless they say otherwise; changes in a name come on top.
UniProt Q7Z2E3: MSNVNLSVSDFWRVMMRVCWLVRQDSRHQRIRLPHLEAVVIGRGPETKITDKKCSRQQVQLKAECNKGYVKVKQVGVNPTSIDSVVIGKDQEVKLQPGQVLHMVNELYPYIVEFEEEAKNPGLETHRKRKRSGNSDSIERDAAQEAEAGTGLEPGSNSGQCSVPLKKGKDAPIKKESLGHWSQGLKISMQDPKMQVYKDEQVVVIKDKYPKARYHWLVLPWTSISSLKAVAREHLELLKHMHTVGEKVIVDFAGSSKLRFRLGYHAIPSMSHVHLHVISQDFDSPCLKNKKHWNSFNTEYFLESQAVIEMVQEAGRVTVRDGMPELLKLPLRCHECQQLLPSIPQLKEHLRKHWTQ
UniProt Q96P48: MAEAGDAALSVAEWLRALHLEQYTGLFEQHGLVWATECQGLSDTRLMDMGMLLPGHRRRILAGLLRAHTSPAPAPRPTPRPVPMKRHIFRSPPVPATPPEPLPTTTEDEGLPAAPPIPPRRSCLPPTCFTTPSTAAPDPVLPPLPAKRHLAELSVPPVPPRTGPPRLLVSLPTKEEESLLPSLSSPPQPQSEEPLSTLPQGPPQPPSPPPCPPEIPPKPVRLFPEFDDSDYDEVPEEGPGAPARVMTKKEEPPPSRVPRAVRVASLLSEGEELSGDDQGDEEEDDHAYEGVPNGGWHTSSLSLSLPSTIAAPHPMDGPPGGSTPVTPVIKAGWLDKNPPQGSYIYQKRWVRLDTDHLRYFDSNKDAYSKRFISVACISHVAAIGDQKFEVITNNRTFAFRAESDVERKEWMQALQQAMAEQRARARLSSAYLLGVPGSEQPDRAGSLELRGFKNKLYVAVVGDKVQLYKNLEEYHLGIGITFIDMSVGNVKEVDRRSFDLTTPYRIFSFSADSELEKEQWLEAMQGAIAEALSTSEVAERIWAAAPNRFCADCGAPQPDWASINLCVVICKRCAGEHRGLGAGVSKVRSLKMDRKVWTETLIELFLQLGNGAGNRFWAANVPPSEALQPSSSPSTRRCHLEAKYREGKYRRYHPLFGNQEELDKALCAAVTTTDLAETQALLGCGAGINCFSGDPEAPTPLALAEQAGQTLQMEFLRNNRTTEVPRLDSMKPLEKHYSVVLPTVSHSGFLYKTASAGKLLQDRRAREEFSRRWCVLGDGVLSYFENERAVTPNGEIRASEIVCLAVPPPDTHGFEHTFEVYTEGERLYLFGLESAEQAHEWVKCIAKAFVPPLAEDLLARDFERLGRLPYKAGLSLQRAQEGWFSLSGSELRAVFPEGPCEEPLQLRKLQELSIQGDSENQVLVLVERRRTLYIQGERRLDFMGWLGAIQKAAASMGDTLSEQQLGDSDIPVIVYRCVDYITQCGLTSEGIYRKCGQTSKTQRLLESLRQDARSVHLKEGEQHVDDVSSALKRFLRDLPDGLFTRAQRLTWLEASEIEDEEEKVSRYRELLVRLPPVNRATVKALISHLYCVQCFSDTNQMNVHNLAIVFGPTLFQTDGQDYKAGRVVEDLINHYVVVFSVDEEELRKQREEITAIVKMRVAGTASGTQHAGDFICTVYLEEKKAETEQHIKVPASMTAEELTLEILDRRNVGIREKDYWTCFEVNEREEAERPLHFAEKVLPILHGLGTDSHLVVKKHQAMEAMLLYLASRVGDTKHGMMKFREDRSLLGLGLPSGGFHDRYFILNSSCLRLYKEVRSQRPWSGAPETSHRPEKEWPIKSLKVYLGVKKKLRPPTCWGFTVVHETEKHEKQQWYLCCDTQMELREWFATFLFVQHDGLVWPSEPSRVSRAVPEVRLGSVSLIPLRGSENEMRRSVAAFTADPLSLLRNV
UniProt P42331: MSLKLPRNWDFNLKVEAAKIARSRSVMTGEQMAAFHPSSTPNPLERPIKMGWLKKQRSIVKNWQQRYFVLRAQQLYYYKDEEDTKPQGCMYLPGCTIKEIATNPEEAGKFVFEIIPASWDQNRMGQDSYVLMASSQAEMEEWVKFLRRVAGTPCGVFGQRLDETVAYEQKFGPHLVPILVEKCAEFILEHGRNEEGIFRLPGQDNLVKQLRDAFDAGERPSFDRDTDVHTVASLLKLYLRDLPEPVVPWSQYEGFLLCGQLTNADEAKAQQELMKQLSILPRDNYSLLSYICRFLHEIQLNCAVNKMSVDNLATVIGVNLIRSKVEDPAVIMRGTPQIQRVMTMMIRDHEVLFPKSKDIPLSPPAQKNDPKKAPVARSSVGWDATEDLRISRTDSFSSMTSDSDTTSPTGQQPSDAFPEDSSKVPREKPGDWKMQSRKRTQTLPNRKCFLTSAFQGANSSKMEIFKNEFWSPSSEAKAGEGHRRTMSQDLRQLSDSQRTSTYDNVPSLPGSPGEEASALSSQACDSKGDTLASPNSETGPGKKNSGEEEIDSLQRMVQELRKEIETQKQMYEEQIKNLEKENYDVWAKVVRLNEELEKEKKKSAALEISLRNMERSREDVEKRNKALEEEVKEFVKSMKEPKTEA
UniProt Q9Y4X5: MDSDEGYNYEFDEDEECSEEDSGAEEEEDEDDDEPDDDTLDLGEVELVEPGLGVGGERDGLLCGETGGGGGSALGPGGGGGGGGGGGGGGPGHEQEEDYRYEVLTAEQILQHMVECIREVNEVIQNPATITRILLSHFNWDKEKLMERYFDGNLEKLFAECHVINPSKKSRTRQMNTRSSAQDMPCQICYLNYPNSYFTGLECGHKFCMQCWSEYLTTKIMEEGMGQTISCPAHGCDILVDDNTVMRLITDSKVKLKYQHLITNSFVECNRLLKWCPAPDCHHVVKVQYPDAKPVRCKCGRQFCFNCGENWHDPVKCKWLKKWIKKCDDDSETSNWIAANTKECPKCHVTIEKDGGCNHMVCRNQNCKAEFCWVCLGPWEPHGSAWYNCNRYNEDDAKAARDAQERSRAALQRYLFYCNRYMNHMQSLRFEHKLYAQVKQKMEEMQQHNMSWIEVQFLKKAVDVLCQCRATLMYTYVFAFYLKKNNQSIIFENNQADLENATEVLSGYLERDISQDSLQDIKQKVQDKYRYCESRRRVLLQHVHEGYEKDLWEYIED
UniProt Q92974: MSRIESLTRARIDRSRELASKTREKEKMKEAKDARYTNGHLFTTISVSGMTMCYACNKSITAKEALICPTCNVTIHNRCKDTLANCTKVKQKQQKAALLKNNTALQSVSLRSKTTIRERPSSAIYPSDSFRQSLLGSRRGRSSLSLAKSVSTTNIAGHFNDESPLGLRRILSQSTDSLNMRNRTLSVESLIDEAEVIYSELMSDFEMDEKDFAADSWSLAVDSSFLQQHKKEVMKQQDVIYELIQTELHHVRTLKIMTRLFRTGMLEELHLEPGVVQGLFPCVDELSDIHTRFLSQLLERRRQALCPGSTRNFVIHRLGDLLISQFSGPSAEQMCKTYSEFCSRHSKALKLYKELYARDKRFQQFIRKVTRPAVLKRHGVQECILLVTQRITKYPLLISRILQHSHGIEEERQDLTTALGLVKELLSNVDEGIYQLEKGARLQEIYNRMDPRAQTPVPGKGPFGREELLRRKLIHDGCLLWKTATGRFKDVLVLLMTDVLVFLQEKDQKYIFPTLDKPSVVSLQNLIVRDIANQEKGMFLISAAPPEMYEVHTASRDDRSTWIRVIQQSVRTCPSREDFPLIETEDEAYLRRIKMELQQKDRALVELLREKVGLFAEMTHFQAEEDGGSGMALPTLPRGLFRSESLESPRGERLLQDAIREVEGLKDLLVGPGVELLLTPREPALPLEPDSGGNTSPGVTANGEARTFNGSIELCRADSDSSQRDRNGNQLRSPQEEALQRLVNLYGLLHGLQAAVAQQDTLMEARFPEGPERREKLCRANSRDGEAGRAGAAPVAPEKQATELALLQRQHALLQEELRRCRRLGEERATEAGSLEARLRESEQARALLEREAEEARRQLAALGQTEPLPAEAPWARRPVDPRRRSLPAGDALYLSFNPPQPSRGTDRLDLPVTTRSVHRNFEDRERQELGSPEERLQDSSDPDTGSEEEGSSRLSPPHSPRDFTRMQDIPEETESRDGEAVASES
UniProt P07741: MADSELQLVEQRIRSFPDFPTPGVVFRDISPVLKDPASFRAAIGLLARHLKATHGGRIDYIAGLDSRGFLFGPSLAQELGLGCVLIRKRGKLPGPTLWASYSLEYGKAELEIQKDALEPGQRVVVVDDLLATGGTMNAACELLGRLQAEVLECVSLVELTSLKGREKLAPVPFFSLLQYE
UniProt Q9NZN5: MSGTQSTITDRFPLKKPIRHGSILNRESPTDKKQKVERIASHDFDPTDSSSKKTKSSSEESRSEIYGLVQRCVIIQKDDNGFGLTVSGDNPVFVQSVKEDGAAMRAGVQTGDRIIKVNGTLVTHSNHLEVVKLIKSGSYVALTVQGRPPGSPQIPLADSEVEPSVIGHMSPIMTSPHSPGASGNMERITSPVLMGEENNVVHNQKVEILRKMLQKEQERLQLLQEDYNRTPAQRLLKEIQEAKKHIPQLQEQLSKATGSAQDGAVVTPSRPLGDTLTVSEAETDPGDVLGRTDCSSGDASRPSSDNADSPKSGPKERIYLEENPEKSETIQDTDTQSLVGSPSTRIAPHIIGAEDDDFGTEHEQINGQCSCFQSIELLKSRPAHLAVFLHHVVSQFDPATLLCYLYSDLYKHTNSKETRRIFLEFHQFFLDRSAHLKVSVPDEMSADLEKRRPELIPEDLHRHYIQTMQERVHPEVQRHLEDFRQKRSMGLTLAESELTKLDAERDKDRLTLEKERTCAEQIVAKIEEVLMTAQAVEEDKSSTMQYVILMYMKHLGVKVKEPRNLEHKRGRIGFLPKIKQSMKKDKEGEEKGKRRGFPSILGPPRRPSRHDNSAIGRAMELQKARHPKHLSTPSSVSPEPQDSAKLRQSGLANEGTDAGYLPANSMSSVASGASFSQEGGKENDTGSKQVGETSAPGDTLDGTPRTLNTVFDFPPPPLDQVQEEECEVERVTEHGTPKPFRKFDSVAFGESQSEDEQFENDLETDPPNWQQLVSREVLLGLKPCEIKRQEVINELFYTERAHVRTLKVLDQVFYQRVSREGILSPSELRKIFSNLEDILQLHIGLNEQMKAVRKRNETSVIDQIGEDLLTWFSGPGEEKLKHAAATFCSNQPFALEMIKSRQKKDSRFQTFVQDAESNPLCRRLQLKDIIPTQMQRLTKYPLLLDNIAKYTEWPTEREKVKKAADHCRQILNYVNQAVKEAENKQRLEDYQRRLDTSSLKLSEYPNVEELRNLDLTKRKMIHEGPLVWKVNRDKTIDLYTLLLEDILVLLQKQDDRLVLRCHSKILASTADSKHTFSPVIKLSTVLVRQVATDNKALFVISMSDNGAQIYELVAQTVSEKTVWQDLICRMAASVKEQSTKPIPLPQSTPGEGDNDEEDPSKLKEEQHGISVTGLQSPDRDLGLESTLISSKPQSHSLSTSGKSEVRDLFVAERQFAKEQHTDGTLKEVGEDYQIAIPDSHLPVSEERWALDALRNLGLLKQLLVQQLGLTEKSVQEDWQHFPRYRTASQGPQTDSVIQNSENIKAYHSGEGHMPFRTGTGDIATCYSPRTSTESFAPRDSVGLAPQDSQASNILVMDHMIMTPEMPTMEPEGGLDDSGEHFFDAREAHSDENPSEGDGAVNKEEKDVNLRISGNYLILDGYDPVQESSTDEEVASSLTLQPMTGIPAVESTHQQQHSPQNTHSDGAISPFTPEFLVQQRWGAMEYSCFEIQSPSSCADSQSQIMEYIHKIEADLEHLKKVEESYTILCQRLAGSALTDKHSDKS
UniProt Q68EM7: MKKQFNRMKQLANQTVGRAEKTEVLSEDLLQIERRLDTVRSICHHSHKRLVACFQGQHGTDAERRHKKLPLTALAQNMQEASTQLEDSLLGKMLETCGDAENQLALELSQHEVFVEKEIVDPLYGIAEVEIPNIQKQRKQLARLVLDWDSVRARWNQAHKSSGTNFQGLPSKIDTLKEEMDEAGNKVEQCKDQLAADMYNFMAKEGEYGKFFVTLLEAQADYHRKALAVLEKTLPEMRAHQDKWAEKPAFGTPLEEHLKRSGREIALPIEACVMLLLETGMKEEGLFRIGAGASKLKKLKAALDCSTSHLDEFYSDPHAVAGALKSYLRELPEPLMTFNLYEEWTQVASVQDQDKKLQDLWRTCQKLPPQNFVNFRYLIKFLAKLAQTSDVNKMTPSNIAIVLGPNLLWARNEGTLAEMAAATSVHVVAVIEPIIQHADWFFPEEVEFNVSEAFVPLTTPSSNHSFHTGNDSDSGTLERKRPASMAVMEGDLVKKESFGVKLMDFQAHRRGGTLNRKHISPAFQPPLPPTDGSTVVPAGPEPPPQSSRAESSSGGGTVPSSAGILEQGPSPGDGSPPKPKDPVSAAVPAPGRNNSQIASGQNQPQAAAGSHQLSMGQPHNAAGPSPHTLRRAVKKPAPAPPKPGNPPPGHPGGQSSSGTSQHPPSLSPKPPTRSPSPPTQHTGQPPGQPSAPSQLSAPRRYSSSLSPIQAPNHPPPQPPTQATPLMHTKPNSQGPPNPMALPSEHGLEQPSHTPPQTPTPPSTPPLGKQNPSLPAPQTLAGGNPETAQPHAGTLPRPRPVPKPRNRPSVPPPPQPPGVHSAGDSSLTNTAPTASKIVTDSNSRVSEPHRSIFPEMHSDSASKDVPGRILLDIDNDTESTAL

Target	probe-labelled cysteine peptide fold change (10 µM)	probe-labelled cysteine peptide fold change (50 µM)
ARID4A_P29374_356_LVYHQGGCDNIDSGAVWK (UniProt P29374)	-0.0193	0.0919
AQR_O60306_96_AYLMSICCMVNEK (UniProt O60306)	0.0481	0.225
ARHGAP11A_Q6P4F7_451_EVNGCSGVNR (UniProt Q6P4F7)	-0.149	-0.292
APTX_Q7Z2E3_333_CHECQQLLPSIPQLK (UniProt Q7Z2E3)	0.0542	-0.134
ARAP1_Q96P48_900_AVFPEGPCEEPLQLR (UniProt Q96P48)	-0.318	-0.319
ARPC4_P59998_21_ATLQAALCLENFSSQVVER (UniProt P59998)	0.202	0.252
ARHGEF1_Q92888_815_ILSDLLPFCRPGPEGQLAATALRK (UniProt Q92888)	-0.137	-0.725
APTX_Q7Z2E3_161_DAAQEAEAGTGLEPGSNSGQCSVPLK (UniProt Q7Z2E3)	-0.585	0.317
ARHGAP25_P42331-2_147_VAGTPCGAVFGQR (UniProt P42331)	-0.0097	-0.0357
ARL5A_Q9Y689_132_ECMTVAEISQFLK (UniProt Q9Y689)	0.0165	0.24
ARIH1_Q9Y4X5_327_KCDDDSETSNWIAANTK (UniProt Q9Y4X5)	-0.0676	-0.448
ARNT_P27540_269_CGSSSVDPVSVNR (UniProt P27540)	-0.375	-0.756
ARMC7_Q9H6L4_144_SFLPELTATPVVQCMLR (UniProt Q9H6L4)	0.439	0.341
ARHGEF2_Q92974_306_QALCPGSTR (UniProt Q92974)	-0.0731	-0.0082
APRT_P07741_140_VVVVDDLLATGGTMNAACELLGR (UniProt P07741)	0.0316	0.118
ARHGAP4_P98171_349_FDYHPHDGDEVAEICVEMELRDEILPR (UniProt P98171)	0.198	0.42
ARHGEF10_O15013_809_AADCCR (UniProt O15013)	-0.155	-0.633
ARMC1_Q9NVT9_161_NLCEEALLK (UniProt Q9NVT9)	0.00245	0.398
ARHGEF12_Q9NZN5_921_FQTFVQDAESNPLCR (UniProt Q9NZN5)	0.114	0.000695
APPL1_Q9UKG1_603_SESNLSSVCYIFESNNEGEK (UniProt Q9UKG1)	-0.0801	0.249
ARHGEF2_Q92974_56_YTNGHLFTTISVSGMTMCYACNK (UniProt Q92974)	-0.111	-0.217

Target	probe-labelled cysteine peptide fold change (10 µM)	probe-labelled cysteine peptide fold change (50 µM)
ARHGAP15_Q53QZ3_140_TGHKPESVDLCGAHIEWAK (UniProt Q53QZ3)	-0.0935	-0.296
ARHGEF12_Q9NZN5_784_EVLLGLKPCEIK (UniProt Q9NZN5)	-0.275	-0.43
ARHGAP27_Q6ZUM4_830_MLFQHLCR (UniProt Q6ZUM4)	0.0553	0.0467
APPL2_Q8NEU8_606_ICYAINLGK (UniProt Q8NEU8)	0.187	0.176
ARPC1B_O15143_346_CSQFCTTGMDGGMSIWDVK (UniProt O15143)	-0.124	-0.0673
ARHGAP25_P42331_302_FLHEIQLNCAVNK (UniProt P42331)	0.0597	0.0794
ARHGEF40_Q8TER5_1148_ELQGCATHPLR (UniProt Q8TER5)	-0.0789	-0.352
ARPC1A_Q92747_70_IVTCGADR (UniProt Q92747)	-0.0719	-0.101
ARHGAP17_Q68EM7_53_RLVACFQGQHGTDAER (UniProt Q68EM7)	0.0556	-0.0362
ARIH1_Q9Y4X5_269_YQHLITNSFVECNR (UniProt Q9Y4X5)	-0.0171	0.0363
ARIH2_O95376_188_DGVGVGVSCMAQDCPLR (UniProt O95376)	0.00474	-0.112
ARID4B_Q4LE39_420_ECENVK (UniProt Q4LE39)	-0.169	-0.17
ARPC1B_O15143_70_IVTCGTDR (UniProt O15143)	0.00133	0.116
ARHGAP45_Q92619_809_LCQAFENGK (UniProt Q92619)	0.077	0.0355
ARFGEF2_Q9Y6D5_1617_LLDCLQESHSFSK (UniProt Q9Y6D5)	0.088	-0.132
ARL6_Q9H0F7_148_VSQLLCLENIK (UniProt Q9H0F7)	-0.0609	-0.0738
ARAP1_Q96P48_1176_VAGTASGTQHAGDFICTVYLEEK (UniProt Q96P48)	0.208	0.0369
ARCN1_P48444_441_NTLEWCLPVIDAK (UniProt P48444)	0.0518	0.0976
ARHGEF6_Q15052_57+66_FCLDPQTEADCINNINDFLK (UniProt Q15052)	0.059	-0.192
ARL2_P36404_153_SHHWCIQGCSAVTGENLLPGIDWLLDDISSR (UniProt P36404)	0.531	0.198
ARHGAP17_Q68EM7_305_AALDCSTSHLDEFYSDPHAVAGALK (UniProt Q68EM7)	-0.0902	-0.0345
